Test results reported in the supplement of paper PMC7666118.
Some of the results follow.

Sequences of proteins named here, by UniProt entry; tags and fusion partners are left off. A change or cut given only in a name is not applied to a line headed by its entry.
UniProt Q7L0Y3: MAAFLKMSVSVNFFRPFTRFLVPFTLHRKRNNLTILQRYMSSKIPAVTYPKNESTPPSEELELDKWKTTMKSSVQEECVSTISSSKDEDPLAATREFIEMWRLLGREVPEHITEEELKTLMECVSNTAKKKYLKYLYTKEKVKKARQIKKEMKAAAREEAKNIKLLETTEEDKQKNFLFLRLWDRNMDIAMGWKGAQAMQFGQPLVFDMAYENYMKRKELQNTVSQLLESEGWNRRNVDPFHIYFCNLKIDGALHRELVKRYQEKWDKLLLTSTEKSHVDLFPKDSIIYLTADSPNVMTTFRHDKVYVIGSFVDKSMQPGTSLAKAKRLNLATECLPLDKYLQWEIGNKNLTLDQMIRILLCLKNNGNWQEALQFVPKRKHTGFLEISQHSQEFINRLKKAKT
UniProt Q9H0Z9: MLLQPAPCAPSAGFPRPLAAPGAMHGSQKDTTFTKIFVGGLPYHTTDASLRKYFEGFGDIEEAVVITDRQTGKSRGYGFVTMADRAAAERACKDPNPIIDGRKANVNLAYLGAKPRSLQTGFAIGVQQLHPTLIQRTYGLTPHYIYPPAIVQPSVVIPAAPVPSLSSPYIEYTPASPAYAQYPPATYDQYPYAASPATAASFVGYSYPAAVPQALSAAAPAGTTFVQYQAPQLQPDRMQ
UniProt Q9NS91, whole entry: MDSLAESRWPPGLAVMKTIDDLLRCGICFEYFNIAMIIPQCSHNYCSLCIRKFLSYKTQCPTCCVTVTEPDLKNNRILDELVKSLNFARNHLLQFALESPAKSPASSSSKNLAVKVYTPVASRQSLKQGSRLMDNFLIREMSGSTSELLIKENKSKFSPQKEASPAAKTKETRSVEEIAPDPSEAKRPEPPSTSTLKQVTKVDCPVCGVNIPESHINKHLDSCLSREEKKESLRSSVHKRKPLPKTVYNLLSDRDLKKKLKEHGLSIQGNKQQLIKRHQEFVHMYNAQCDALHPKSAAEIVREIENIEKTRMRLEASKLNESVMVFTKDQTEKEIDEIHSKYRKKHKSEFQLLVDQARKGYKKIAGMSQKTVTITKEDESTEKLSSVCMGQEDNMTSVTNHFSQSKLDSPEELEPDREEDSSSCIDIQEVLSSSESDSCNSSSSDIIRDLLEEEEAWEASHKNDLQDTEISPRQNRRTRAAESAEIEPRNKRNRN
UniProt Q8IXT5: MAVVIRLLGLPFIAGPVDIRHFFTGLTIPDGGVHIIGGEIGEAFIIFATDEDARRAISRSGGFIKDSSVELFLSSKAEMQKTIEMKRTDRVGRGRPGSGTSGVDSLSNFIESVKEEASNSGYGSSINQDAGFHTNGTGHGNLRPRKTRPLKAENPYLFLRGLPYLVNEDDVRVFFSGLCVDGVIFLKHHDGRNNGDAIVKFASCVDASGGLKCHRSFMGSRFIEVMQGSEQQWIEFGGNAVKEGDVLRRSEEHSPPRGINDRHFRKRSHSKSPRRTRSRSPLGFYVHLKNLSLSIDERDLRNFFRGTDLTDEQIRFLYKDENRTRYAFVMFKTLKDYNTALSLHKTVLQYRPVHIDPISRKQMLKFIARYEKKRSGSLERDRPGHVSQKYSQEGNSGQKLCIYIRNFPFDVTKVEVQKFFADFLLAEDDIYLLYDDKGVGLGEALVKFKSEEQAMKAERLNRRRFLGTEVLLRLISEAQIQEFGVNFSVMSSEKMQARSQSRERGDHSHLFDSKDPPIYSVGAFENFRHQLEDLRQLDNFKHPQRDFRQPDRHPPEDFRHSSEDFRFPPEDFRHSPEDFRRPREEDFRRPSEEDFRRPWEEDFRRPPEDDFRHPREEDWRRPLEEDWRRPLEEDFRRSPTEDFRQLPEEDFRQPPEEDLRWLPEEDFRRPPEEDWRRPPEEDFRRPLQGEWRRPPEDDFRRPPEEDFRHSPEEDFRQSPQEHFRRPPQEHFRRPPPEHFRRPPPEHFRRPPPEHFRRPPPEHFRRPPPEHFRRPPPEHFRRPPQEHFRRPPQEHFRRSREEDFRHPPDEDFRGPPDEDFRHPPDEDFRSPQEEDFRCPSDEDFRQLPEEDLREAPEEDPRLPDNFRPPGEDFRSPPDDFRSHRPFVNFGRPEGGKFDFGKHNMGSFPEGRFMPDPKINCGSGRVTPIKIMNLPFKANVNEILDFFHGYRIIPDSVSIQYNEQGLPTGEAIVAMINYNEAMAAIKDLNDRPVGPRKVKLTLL
UniProt Q5TBB1: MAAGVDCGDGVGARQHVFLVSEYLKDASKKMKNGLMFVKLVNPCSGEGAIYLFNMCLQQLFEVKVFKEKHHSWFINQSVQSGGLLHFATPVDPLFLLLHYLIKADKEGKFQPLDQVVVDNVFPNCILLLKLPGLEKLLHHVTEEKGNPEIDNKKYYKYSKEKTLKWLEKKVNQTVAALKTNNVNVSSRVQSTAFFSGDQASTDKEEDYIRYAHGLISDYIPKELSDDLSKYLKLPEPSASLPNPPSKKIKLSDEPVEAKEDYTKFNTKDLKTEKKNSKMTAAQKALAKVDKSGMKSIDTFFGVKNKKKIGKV
UniProt Q8WUD1: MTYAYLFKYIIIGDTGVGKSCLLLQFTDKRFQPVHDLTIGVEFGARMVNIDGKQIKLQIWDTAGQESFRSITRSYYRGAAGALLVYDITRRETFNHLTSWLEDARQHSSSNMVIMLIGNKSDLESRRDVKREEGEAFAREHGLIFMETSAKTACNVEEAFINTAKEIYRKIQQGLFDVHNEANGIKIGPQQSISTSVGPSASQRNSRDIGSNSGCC
UniProt Q6ZRP7: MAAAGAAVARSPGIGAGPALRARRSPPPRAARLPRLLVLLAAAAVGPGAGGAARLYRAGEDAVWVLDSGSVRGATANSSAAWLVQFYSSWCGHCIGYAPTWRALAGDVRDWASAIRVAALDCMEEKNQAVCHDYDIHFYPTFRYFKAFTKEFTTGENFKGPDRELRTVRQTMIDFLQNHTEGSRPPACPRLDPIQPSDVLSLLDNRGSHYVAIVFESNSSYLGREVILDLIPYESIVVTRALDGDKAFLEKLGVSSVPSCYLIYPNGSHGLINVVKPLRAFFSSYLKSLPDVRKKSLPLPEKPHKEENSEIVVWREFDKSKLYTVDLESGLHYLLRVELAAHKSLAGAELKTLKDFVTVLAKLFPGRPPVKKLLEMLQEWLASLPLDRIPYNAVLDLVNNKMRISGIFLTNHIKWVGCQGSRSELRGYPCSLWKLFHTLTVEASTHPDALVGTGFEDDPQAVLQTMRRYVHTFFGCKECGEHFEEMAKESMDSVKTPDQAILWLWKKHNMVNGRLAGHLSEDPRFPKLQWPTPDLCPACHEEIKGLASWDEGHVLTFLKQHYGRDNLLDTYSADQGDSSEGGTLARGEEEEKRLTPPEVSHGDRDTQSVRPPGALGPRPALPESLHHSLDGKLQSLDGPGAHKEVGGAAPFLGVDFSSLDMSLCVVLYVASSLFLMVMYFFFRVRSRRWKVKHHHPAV
UniProt P28749: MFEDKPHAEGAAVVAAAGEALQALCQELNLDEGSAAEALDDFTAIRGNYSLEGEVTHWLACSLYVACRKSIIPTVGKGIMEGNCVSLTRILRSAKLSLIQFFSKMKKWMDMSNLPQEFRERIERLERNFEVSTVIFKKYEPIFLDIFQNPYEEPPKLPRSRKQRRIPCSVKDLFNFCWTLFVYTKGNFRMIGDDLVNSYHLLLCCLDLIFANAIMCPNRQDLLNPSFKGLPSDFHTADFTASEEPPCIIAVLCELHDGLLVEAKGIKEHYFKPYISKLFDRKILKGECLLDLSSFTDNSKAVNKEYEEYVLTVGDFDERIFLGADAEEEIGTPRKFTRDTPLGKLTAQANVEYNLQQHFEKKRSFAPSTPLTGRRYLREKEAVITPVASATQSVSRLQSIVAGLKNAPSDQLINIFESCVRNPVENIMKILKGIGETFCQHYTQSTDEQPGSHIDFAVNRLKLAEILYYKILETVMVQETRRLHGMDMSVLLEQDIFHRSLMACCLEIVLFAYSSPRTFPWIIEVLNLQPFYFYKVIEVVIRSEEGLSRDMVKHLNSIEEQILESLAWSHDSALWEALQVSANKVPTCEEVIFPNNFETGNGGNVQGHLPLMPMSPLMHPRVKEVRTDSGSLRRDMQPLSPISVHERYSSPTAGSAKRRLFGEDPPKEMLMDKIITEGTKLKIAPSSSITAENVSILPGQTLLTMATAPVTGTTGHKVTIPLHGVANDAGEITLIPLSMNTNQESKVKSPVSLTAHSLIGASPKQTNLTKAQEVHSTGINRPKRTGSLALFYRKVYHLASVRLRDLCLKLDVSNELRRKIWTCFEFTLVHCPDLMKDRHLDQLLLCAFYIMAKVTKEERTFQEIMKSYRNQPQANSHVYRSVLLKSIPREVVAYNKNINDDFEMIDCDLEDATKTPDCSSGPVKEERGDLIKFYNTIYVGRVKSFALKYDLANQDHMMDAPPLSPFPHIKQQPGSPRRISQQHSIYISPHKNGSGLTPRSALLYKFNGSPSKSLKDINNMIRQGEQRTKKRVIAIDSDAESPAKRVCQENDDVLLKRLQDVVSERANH
UniProt P35241, whole entry: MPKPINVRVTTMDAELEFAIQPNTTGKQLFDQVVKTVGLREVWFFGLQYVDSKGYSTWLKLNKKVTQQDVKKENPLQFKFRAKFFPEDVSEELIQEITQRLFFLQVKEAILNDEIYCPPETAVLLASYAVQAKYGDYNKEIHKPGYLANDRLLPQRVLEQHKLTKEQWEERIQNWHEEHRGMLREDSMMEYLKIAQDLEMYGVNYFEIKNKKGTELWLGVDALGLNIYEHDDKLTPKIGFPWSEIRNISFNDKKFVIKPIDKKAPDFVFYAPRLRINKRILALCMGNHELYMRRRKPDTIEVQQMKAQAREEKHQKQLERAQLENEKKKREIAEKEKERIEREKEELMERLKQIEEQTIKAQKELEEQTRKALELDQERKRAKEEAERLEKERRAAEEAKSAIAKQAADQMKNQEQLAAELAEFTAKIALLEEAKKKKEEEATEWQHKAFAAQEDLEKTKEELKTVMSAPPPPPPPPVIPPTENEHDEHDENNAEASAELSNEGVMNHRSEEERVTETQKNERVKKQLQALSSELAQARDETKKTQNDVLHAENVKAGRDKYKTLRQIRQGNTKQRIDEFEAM
UniProt P61006: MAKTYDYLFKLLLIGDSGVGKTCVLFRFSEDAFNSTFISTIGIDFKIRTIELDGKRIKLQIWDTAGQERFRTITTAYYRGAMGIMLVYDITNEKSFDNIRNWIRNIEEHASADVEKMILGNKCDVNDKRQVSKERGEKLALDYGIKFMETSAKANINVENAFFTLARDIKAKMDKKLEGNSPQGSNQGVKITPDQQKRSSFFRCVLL
UniProt Q00765: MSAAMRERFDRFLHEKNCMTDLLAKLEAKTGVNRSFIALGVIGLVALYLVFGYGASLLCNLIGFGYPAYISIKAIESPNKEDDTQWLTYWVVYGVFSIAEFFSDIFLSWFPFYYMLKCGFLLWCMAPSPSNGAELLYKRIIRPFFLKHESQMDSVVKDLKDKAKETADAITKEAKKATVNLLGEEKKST
UniProt O75943: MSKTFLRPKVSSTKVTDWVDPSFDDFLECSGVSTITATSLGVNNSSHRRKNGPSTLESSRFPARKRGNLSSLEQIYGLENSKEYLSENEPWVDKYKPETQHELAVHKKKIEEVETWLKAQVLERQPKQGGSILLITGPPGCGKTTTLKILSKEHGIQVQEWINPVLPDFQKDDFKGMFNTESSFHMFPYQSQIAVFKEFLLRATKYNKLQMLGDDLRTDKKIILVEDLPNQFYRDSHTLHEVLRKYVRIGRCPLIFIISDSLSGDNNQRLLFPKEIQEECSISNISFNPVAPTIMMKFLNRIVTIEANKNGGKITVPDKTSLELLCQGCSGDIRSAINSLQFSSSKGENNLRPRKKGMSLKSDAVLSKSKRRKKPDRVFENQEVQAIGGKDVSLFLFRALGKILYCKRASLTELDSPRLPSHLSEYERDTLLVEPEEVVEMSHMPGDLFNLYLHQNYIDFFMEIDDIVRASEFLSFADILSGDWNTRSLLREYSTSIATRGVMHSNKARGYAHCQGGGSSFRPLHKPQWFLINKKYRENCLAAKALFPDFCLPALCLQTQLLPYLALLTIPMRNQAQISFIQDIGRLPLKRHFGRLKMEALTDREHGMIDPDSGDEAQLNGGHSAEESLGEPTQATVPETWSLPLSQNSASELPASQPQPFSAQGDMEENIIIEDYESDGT
UniProt Q9Y3L5: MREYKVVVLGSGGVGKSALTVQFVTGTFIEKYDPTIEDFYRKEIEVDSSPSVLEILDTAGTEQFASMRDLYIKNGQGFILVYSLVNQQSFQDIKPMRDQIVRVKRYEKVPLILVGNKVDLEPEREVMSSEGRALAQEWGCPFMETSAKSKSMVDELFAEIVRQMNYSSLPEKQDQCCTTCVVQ
UniProt O75792: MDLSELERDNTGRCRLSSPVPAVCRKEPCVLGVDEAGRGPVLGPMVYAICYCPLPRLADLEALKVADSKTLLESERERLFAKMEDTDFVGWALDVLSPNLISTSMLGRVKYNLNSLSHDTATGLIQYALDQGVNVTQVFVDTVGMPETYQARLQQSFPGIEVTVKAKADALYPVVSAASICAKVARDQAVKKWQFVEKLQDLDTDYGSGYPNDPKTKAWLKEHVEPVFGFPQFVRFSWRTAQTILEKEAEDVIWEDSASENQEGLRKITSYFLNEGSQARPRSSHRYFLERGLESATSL

Compound: COc1ccc(Cn2ccc3cc(C)c(C(=O)NO)cc32)cc1
Assay: dose-dependent thermal stabilisation call (2D-TPP, DLPTP, 10% FDR) (binary (1 = stabilised)); higher = stabilised by the compound
Conditions: system: HL-60 intact cells; concentration range 0.04-10 µM
Description: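 2D thermal proteome profiling in intact HL-60 cells treated with BRD-3811 (0, 0.04, 0.29, 2, 10 uM) for 90 min at 37 C, then heated 3 min at one of 12 temperatures (42-63.9 C). Soluble protein was quantified by TMT10 MS. The value is the DLPTP call of the paper: dose-dependent thermal stabilisation over all temperatures at 10% FDR (F-test of a dose-response against a flat model); one experiment, one call per tested protein.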

Target | dose-dependent thermal stabilisation call
RNF149 (UniProt Q8NC42) | inactive: 0
RG9MTD1 (UniProt Q7L0Y3) | inactive: 0
RAD51AP1 (UniProt Q96B01) | inactive: 0
RBM38 (UniProt Q9H0Z9) | inactive: 0
RIPK1 (UniProt Q13546) | inactive: 0
RAD18 (UniProt Q9NS91) | inactive: 0
PUS7L (UniProt Q9H0K6) | inactive: 0
RGP1 (UniProt Q92546) | inactive: 0
RABAC1 (UniProt Q9UI14) | inactive: 0
RIOK2 (UniProt Q9BVS4) | inactive: 0
RAP1A (UniProt P62834) | inactive: 0
RBM12B (UniProt Q8IXT5) | inactive: 0
PTTG1IP (UniProt P53801) | inactive: 0
RFX2 (UniProt P48378) | inactive: 0
RNASEH2B (UniProt Q5TBB1) | inactive: 0
RABIF (UniProt P47224) | inactive: 0
RCOR3 (UniProt Q9P2K3) | inactive: 0
RABGGTB (UniProt P53611) | inactive: 0
RAB2B (UniProt Q8WUD1) | inactive: 0
QARS | inactive: 0

In a second layout: entries from further up.
Target	dose-dependent thermal stabilisation call
RABAC1 (UniProt Q9UI14)	inactive: 0
RCOR3 (UniProt Q9P2K3)	inactive: 0

(next part)

Target | dose-dependent thermal stabilisation call
QSOX2 (UniProt Q6ZRP7) | inactive: 0
RAB9A (UniProt P51151) | inactive: 0
RAN (UniProt P62826) | inactive: 0
RBL1 (UniProt P28749) | inactive: 0
RDX (UniProt P35241) | inactive: 0
RAB8A (UniProt P61006) | inactive: 0
RBBP9 (UniProt O75884) | inactive: 0
REEP5 (UniProt Q00765) | inactive: 0
RAD17 (UniProt O75943) | inactive: 0
RNF214 (UniProt Q8ND24) | inactive: 0
REEP4 (UniProt Q9H6H4) | inactive: 0
RANBP10 (UniProt Q6VN20) | inactive: 0
RAP2C (UniProt Q9Y3L5) | inactive: 0
RAI1 (UniProt Q7Z5J4) | inactive: 0
RCN2 (UniProt Q14257) | inactive: 0
REPS1 (UniProt Q96D71) | inactive: 0
RNASEH2A (UniProt O75792) | inactive: 0
RINT1 (UniProt Q6NUQ1) | inactive: 0
RAVER2 (UniProt Q9HCJ3) | inactive: 0
PTPRJ (UniProt Q12913) | inactive: 0
